Reference: PubChem BioAssay AID540276 (National Center for Advancing Translational Sciences (NCATS), 2011)
Out of some 300,000 compounds screened, about 5,400 (1.8%) were called active. Inconclusive results, whose numbers are uncertain, are shown with a selection of clear calls. Calls come from the whole dose curve; tested in HEK293 cells. A potency beside an inconclusive call is a rough fit, not a confirmed value.

experiment: qHTS for inhibitors of binding or entry into cells for Marburg Virus; settings: Marburg virus pseudotyped entry inhibition, cell reporter; activity change, negative = inhibition: at 37.8 µM (top of the series) unless noted
% is set by controls: 0 for no effect and ±100 for the full control effect; potency is the fitted concentration of half-maximal effect.

SMILES	activity change, negative = inhibition	Potency
CC(=O)Oc1ccc(C(=O)NCc2ccco2)cc1	inactive: -17.4% [at 46.1 µM]	–
CCc1ccc(S(=O)(=O)Nc2cccc(-c3ccc4nnc(C)n4n3)c2)s1	–	inconclusive: 1 µM [inhibitor, full curve]
CCOC(=O)N1CCN(Cc2nc3cc(NC(=O)CC)ccc3n2C)CC1	–	inconclusive: 3.16 µM [activator, partial curve, poor fit]
NC(=O)C1CCN(CC(O)COc2ccc(-c3ccccc3)cc2)CC1 (stereo not drawn)	–	inconclusive: 35.5 µM [inhibitor, single point]
Cc1ccc(/C=N/NC(=O)c2cccc(S(=O)(=O)N3CCOCC3)c2)o1	–	inconclusive: 3.16 µM [activator, full curve]
CC1CC2(C)C(CCC3C2CCC2(C)C(OP(=O)(N4CC4)N4CC4)CCC32)CC1=O (stereo not drawn)	–	inconclusive: 3.55 µM [activator, single point]
OC[C@H]1O[C@H](n2cnc3c(N[C@H]4CCC[C@@H]4O)ncnc32)[C@H](O)[C@@H]1O	inactive: 2.42%	–
CCN(c1ccc(C(O)(C(=O)OC)C(F)(F)F)cc1)S(=O)(=O)c1ccccc1 (stereo not drawn)	inactive: 0.956%	–
COc1ccccc1OCC(=O)Nc1nnc(-c2ccco2)s1	–	inconclusive: 17.8 µM [activator, single point]
O=C(NC1CC(=O)N(c2ccccc2)C1)N1CCN(C(=O)c2ccco2)CC1 (stereo not drawn)	–	inconclusive: 3.16 µM [activator, partial curve, poor fit]
Cc1ccc(Nc2nc3ccccc3s2)cc1	–	inconclusive: 29.1 µM [inhibitor, single point]
O=C(N/N=C/c1ccc2c(c1)OCO2)c1ccc2c(c1)OCO2	–	inconclusive: 35.5 µM [inhibitor, single point]
O=C(COC(=O)CCN1C(=O)c2cccc([N+](=O)[O-])c2C1=O)NC1CCS(=O)(=O)C1 (stereo not drawn)	–	inconclusive: 11.2 µM [activator, single point]
CCNc1nc(Oc2c(Cl)cccc2Cl)cc(C(F)(F)F)n1	–	inconclusive: 0.92 µM [inhibitor, full curve, poor fit]
CC(C)c1ccc(NC(=O)c2cn(C3CCCCC3)c(=O)c3c2c2ccccc2n3C)cc1	inactive: -9.55% [at 46.1 µM]	–
COc1ccc(C(=O)Nc2cccc(-c3nc4ncccc4o3)c2C)cc1	–	inconclusive: 11.2 µM [inhibitor, partial curve, poor fit]
Cc1cc(C(=O)COc2cccnc2[N+](=O)[O-])c(C)n1-c1ccccc1	–	inconclusive: 25.1 µM [inhibitor, single point]
CCOC(=O)c1ccc(NC(=S)N(CCCN2CCCCCC2)Cc2ccco2)cc1	–	inconclusive: 20.6 µM [inhibitor, single point]

As a working copy, part of the list above.
SMILES	activity change, negative = inhibition	Potency
CCOC(=O)N1CCN(Cc2nc3cc(NC(=O)CC)ccc3n2C)CC1	–	inconclusive: 3.16 µM [activator, partial curve, poor fit]
NC(=O)C1CCN(CC(O)COc2ccc(-c3ccccc3)cc2)CC1 (stereo not drawn)	–	inconclusive: 35.5 µM [inhibitor, single point]
